What all share (assay): ReLo
Experiment [1] has as its target T1, Smoothened cytotail (Smo 556-1036), ReLo (Drosophila) (UniProt P91682).
T1 sequence: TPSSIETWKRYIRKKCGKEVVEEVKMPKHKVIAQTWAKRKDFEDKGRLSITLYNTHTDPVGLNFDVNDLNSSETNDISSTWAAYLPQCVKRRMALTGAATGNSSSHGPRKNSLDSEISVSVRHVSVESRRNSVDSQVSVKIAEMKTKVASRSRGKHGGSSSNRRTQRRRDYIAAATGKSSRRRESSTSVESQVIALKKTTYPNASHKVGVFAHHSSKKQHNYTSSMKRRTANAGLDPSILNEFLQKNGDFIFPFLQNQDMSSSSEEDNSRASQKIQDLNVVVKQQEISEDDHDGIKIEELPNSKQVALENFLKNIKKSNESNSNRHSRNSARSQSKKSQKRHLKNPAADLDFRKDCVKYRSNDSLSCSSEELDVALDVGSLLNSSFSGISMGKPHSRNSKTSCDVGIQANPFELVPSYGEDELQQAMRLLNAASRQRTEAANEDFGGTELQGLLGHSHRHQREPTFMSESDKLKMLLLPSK

Experiment [2] has as its target T2, PH-EGFP-Smaug (Drosophila) (UniProt Q23972).
T2 sequence: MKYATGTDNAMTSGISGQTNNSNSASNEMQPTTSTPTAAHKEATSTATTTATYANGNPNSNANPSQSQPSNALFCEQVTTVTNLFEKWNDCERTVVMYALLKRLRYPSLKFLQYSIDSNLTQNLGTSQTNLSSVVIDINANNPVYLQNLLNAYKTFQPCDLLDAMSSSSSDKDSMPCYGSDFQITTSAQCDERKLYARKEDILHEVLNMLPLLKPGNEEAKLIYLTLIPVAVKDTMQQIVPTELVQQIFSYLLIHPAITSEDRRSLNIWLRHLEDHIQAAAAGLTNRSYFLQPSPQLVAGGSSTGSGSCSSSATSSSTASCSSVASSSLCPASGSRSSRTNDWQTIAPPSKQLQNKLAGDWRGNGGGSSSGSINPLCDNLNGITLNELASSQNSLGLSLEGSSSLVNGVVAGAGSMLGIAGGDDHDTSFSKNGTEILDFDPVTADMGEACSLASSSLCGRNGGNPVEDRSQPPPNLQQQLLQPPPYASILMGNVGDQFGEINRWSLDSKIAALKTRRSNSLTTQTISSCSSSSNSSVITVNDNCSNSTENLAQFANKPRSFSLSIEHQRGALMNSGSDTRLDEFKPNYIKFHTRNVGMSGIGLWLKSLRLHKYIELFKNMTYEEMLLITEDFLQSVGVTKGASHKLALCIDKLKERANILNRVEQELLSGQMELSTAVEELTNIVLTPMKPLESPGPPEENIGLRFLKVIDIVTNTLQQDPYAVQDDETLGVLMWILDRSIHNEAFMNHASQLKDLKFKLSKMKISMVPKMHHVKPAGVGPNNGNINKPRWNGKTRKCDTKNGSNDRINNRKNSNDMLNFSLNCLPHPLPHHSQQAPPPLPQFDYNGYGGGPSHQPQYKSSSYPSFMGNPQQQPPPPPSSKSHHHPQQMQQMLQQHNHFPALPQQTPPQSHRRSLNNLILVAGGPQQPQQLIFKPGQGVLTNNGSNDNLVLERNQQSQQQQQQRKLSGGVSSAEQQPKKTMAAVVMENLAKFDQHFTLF

The target of experiment [3] is T3, Smoothened (ReLo) (Drosophila) (UniProt P91682).
T3 sequence: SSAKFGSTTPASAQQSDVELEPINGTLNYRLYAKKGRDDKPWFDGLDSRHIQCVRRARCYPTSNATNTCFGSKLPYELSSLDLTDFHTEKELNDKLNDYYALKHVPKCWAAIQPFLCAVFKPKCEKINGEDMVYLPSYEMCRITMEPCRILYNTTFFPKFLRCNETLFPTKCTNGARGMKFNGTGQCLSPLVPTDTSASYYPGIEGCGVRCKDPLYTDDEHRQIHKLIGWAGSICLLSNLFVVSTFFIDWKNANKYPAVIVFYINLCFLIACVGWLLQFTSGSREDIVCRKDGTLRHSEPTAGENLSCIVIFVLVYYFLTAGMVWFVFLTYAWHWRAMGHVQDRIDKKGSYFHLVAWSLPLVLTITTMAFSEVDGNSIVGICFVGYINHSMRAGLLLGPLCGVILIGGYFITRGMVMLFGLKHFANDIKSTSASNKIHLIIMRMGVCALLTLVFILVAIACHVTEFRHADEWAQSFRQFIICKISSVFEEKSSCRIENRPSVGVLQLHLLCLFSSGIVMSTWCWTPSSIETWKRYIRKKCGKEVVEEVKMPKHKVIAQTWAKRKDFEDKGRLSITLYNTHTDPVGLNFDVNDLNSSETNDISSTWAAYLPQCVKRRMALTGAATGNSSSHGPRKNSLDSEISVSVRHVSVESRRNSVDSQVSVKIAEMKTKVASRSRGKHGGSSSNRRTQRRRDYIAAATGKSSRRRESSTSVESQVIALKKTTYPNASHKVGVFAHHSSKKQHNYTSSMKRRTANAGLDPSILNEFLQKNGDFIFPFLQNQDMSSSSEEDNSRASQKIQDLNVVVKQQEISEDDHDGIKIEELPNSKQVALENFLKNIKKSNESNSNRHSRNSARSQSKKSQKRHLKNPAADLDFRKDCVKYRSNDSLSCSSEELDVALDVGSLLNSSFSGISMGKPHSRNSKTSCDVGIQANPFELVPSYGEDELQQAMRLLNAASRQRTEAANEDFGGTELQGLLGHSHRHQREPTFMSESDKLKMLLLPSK

Results are given in words; binding and its absence hold for the method and conditions named. Some entries that bind do so weakly or less than the wild type. For part of these data: Tags and fused reporters may be left off the sequences shown.

B1: Smaug DR1 (aa 282-595), ReLo (domain or fragment, UniProt Q23972 282-595)
chain: AGLTNRSYFLQPSPQLVAGGSSTGSGSCSSSATSSSTASCSSVASSSLCPASGSRSSRTNDWQTIAPPSKQLQNKLAGDWRGNGGGSSSGSINPLCDNLNGITLNELASSQNSLGLSLEGSSSLVNGVVAGAGSMLGIAGGDDHDTSFSKNGTEILDFDPVTADMGEACSLASSSLCGRNGGNPVEDRSQPPPNLQQQLLQPPPYASILMGNVGDQFGEINRWSLDSKIAALKTRRSNSLTTQTISSCSSSSNSSVITVNDNCSNSTENLAQFANKPRSFSLSIEHQRGALMNSGSDTRLDEFKPNYIKFHTRN
As to B1, the binding entry in experiment [1] was “no binding”.

B2: 14-3-3ζ (protein, UniProt P29310 1-248)
chain: MSTVDKEELVQKAKLAEQSERYDDMAQAMKSVTETGVELSNEERNLLSVAYKNVVGARRSSWRVISSIEQKTEASARKQQLAREYRERVEKELREICYEVLGLLDKYLIPKASNPESKVFYLKMKGDYYRYLAEVATGDARNTVVDDSQTAYQDAFDISKGKMQPTHPIRLGLALNFSVFYYEILNSPDKACQLAKQAFDDAIAELDTLNEDSYKDSTLIMQLLRDNLTLWTSDTQGDEAEPQEGGDN
Take B2: in experiment [2], the binding entry was “binds”.

B3: Fused (enzyme, UniProt P23647 1-805)
chain: MNRYAVSSLVGQGSFGCVYKATRKDDSKVVAIKVISKRGRATKELKNLRRECDIQARLKHPHVIEMIESFESKTDLFVVTEFALMDLHRYLSYNGAMGEEPARRVTGHLVSALYYLHSNRILHRDLKPQNVLLDKNMHAKLCDFGLARNMTLGTHVLTSIKGTPLYMAPELLAEQPYDHHADMWSLGCIAYESMAGQPPFCASSILHLVKMIKHEDVKWPSTLTSECRSFLQGLLEKDPGLRISWTQLLCHPFVEGRIFIAETQAEAAKESPFTNPEAKVKSSKQSDPEVGDLDEALAALDFGESRQENLTTSRDSINAIAPSDVEHLETDVEDNMQRVVVPFADLSYRDLSGVRAMPMVHQPVINSHTCFVSGNSNMILNHMNDNFDFQASLRGGGVAAKPIVAPTVRQSRSKDLEKRKLSQNLDNFSVRLGHSVDHEAQRKATEIATQEKHNQENKPPAEAISYANSQPPQQQPQQLKHSMHSTNEEKLSSDNTPPCLLPGWDSCDESQSPPIENDEWLAFLNRSVQELLDGELDSLKQHNLVSIIVAPLRNSKAIPRVLKSVAQLLSLPFVLVDPVLIVDLELIRNVYVDVKLVPNLMYACKLLLSHKQLSDSAASAPLTTGSLSRTLRSIPELTVEELETACSLYELVCHLVHLQQQFLTQFCDAVAILAASDLFLNFLTHDFRQSDSDAASVRLAGCMLALMGCVLRELPENAELVERIVFNPRLNFVSLLQSRHHLLRQRSCQLLRLLARFSLRGVQRIWNGELRFALQQLSEHHSYPALRGEAAQTLDEISHFTFFVT
With B3, the binding entry in experiment [3] is reported as “binds”.

B4: Smaug DR2 (aa 766-999), ReLo (domain or fragment, UniProt Q23972 766-999)
chain: SMVPKMHHVKPAGVGPNNGNINKPRWNGKTRKCDTKNGSNDRINNRKNSNDMLNFSLNCLPHPLPHHSQQAPPPLPQFDYNGYGGGPSHQPQYKSSSYPSFMGNPQQQPPPPPSSKSHHHPQQMQQMLQQHNHFPALPQQTPPQSHRRSLNNLILVAGGPQQPQQLIFKPGQGVLTNNGSNDNLVLERNQQSQQQQQQRKLSGGVSSAEQQPKKTMAAVVMENLAKFDQHFTLF
Regarding B4, in experiment [1], the binding entry is on record as “no binding”.

B5: Smaug SAM-PHAT (aa 596-765), ReLo (domain or fragment, UniProt Q23972 596-765)
chain: VGMSGIGLWLKSLRLHKYIELFKNMTYEEMLLITEDFLQSVGVTKGASHKLALCIDKLKERANILNRVEQELLSGQMELSTAVEELTNIVLTPMKPLESPGPPEENIGLRFLKVIDIVTNTLQQDPYAVQDDETLGVLMWILDRSIHNEAFMNHASQLKDLKFKLSKMKI
As to B5, the binding entry in experiment [1] is recorded as “no binding”.

B6: Ago2 (protein, UniProt Q9VUQ5 1-1214)
chain: MGKKDKNKKGGQDSAAAPQPQQQQKQQQQRQQQPQQLQQPQQLQQPQQLQQPQQQQQQQPHQQQQQSSRQQPSTSSGGSRASGFQQGGQQQKSQDAEGWTAQKKQGKQQVQGWTKQGQQGGHQQGRQGQDGGYQQRPPGQQQGGHQQGRQGQEGGYQQRPPGQQQGGHQQGRQGQEGGYQQRPSGQQQGGHQQGRQGQEGGYQQRPPGQQQGGHQQGRQGQEGGYQQRPSGQQQGGHQQGRQGQEGGYQQRPPGQQQGGHQQGRQGQEGGYQQRPPGQQQGGHEQGRQGQEGGYQQRPSGQQQGGHQQGRQGQEGGYQQRPSGQQQGGHQQGRQGQEGGYQQRPSGQQQGGHQQGRQGQEGGYQQRPPGQQPNQTQSQGQYQSRGPPQQQQAAPLPLPPQPAGSIKRGTIGKPGQVGINYLDLDLSKMPSVAYHYDVKIMPERPKKFYRQAFEQFRVDQLGGAVLAYDGKASCYSVDKLPLNSQNPEVTVTDRNGRTLRYTIEIKETGDSTIDLKSLTTYMNDRIFDKPMRAMQCVEVVLASPCHNKAIRVGRSFFKMSDPNNRHELDDGYEALVGLYQAFMLGDRPFLNVDISHKSFPISMPMIEYLERFSLKAKINNTTNLDYSRRFLEPFLRGINVVYTPPQSFQSAPRVYRVNGLSRAPASSETFEHDGKKVTIASYFHSRNYPLKFPQLHCLNVGSSIKSILLPIELCSIEEGQALNRKDGATQVANMIKYAATSTNVRKRKIMNLLQYFQHNLDPTISRFGIRIANDFIVVSTRVLSPPQVEYHSKRFTMVKNGSWRMDGMKFLEPKPKAHKCAVLYCDPRSGRKMNYTQLNDFGNLIISQGKAVNISLDSDVTYRPFTDDERSLDTIFADLKRSQHDLAIVIIPQFRISYDTIKQKAELQHGILTQCIKQFTVERKCNNQTIGNILLKINSKLNGINHKIKDDPRLPMMKNTMYIGADVTHPSPDQREIPSVVGVAASHDPYGASYNMQYRLQRGALEEIEDMFSITLEHLRVYKEYRNAYPDHIIYYRDGVSDGQFPKIKNEELRCIKQACDKVGCKPKICCVIVVKRHHTRFFPSGDVTTSNKFNNVDPGTVVDRTIVHPNEMQFFMVSHQAIQGTAKPTRYNVIENTGNLDIDLLQQLTYNLCHMFPRCNRSVSYPAPAYLAHLVAARGRVYLTGTNRFLDLKKEYAKRTIVPEFMKKNPMYFV
Regarding B6, the binding result in experiment [2] is “no binding”.

The values above are taken from paper doi:10.1101/2023.02.19.529116.
